Results as given in the supplement of paper PMC10849652.
Some of the results follow.

Chains of the proteins cited; added tags and fusions are not shown. Lines headed by an entry give the natural chain unless they say otherwise; changes in a name come on top.
UniProt P32121, whole entry, looked up: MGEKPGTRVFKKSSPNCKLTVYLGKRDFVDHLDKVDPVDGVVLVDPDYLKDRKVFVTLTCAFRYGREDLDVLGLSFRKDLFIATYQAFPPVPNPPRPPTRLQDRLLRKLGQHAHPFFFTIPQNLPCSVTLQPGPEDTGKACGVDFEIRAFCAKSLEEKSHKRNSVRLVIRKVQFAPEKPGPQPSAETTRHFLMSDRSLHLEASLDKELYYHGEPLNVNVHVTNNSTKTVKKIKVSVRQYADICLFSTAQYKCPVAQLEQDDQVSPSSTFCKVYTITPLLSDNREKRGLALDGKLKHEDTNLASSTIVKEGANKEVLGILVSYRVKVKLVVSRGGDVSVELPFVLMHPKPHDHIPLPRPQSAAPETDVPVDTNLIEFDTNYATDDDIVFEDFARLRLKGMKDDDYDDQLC
UniProt P15848: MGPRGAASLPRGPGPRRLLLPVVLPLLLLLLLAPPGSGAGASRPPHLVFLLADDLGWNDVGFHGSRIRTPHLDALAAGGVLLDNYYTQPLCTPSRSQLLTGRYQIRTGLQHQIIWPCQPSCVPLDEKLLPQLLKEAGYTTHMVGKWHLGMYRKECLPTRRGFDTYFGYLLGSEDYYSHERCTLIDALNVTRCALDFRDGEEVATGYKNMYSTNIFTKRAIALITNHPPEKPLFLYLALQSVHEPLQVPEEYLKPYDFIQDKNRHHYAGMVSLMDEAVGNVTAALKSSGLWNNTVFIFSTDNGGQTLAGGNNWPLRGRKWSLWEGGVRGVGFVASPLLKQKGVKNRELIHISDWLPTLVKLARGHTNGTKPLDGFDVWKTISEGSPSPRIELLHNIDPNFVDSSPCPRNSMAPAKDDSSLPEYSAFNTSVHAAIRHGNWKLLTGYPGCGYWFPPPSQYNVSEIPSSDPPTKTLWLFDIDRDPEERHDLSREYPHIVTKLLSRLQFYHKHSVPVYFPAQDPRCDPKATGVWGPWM
UniProt Q66PJ3: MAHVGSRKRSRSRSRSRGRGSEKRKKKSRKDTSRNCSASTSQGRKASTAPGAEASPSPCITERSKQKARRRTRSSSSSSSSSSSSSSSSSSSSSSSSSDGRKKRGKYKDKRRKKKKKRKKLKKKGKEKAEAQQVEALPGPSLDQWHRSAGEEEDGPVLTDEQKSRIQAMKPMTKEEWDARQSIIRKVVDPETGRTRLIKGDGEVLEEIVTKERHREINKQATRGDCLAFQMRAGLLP
UniProt Q8IUX4: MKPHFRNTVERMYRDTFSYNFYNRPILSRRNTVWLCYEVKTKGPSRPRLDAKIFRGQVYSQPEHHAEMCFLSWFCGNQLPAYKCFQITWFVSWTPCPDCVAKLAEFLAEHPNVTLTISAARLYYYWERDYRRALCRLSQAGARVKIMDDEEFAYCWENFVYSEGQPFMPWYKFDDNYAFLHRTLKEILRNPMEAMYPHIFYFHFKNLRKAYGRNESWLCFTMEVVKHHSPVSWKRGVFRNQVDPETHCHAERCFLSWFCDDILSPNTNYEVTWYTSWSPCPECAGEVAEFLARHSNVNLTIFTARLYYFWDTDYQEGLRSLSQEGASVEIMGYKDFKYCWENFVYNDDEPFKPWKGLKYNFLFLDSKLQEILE
UniProt Q6UWY0: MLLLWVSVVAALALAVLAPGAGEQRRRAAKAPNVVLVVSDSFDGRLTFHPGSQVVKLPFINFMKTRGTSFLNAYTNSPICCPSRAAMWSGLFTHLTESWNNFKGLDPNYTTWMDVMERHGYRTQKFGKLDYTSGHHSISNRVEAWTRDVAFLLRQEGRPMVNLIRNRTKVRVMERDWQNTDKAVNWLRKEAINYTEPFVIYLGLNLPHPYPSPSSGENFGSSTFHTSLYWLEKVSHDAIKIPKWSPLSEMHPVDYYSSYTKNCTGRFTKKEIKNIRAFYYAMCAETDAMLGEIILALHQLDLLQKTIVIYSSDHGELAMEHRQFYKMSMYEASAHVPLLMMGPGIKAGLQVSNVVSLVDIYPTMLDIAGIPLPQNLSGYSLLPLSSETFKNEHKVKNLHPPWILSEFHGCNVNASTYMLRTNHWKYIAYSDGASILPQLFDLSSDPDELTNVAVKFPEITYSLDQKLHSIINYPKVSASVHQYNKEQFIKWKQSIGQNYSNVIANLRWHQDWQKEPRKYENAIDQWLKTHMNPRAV
UniProt P25054, whole entry, looked up: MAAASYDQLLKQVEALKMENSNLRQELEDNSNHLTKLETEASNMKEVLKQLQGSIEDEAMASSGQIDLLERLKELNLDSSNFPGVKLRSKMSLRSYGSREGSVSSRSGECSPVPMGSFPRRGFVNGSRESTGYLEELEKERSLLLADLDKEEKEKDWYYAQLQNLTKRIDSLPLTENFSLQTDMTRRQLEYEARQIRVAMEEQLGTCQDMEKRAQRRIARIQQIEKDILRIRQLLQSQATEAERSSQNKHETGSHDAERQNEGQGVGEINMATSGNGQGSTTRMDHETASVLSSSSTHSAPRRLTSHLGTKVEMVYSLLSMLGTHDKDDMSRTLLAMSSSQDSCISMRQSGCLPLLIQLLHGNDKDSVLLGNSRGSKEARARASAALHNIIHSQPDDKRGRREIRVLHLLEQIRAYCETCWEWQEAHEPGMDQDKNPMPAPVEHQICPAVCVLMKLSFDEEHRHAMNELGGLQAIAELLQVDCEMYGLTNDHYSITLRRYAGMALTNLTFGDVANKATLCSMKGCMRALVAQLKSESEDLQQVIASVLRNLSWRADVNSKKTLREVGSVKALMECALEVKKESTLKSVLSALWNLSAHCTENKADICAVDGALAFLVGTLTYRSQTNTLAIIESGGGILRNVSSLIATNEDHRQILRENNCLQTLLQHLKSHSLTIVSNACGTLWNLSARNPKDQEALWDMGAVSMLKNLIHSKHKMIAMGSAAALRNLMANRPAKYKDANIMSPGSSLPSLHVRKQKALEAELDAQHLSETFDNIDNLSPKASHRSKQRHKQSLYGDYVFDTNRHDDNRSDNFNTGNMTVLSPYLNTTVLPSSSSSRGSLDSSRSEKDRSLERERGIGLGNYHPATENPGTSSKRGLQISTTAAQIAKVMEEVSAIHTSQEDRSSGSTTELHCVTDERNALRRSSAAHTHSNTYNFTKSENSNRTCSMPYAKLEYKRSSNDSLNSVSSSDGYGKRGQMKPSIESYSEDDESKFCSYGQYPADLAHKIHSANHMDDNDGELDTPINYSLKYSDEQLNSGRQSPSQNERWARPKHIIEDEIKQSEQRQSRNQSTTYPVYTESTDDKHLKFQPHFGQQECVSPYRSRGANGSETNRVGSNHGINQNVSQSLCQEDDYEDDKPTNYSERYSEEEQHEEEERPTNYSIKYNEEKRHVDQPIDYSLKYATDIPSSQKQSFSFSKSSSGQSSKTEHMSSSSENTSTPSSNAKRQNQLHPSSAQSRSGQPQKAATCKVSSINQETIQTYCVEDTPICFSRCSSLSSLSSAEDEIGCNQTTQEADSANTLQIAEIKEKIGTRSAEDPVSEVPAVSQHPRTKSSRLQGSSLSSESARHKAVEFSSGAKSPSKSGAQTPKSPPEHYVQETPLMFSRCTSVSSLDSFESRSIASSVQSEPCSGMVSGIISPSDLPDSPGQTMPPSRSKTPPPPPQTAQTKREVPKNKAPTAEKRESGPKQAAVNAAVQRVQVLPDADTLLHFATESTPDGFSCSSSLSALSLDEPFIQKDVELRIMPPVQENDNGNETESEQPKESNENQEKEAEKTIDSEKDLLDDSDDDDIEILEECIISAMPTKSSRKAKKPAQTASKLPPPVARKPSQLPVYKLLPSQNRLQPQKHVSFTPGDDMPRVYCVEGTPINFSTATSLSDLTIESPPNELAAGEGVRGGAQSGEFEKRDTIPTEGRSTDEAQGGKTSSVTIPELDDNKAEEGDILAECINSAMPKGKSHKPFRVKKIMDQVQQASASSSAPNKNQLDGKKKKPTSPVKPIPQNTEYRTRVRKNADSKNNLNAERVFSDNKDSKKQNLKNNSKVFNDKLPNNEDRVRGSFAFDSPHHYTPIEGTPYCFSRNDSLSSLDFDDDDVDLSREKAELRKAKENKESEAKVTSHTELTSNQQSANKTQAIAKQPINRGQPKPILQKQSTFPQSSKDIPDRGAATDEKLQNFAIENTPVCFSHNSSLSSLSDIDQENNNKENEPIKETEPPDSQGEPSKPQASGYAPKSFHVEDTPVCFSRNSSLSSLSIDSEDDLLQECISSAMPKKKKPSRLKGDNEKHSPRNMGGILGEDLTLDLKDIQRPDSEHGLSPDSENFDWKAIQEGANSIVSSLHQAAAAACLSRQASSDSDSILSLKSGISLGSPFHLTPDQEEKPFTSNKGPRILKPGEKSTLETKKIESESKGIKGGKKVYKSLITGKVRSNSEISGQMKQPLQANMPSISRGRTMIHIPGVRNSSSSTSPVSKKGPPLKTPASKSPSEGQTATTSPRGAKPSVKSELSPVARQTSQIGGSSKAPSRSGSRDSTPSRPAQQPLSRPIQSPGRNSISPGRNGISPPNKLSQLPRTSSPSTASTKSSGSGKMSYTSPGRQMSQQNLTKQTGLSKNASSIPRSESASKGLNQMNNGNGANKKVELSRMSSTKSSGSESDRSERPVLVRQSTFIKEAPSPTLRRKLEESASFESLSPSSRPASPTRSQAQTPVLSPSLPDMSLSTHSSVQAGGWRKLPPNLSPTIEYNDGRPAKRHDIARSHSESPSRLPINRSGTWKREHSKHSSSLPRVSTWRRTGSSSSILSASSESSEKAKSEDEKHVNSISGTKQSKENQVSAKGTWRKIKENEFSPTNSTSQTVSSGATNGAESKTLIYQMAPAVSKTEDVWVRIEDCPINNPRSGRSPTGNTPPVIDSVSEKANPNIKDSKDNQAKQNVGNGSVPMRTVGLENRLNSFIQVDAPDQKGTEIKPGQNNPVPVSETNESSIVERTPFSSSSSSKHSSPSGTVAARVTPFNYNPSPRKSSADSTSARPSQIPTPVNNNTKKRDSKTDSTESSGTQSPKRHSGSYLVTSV
UniProt P48444: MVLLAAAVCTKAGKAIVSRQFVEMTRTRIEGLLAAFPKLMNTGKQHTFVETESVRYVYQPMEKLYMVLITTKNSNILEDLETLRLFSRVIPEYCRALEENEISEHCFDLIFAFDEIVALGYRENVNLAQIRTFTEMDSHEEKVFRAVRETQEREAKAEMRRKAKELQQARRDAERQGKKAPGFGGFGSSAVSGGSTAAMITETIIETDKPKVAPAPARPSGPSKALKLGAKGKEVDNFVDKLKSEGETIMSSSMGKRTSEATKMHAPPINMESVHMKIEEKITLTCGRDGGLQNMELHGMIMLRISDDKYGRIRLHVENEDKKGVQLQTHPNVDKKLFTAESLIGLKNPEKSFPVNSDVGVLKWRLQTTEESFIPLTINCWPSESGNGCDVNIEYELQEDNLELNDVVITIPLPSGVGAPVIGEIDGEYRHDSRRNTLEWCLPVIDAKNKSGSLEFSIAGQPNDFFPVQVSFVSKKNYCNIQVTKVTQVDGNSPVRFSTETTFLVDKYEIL
UniProt O00192: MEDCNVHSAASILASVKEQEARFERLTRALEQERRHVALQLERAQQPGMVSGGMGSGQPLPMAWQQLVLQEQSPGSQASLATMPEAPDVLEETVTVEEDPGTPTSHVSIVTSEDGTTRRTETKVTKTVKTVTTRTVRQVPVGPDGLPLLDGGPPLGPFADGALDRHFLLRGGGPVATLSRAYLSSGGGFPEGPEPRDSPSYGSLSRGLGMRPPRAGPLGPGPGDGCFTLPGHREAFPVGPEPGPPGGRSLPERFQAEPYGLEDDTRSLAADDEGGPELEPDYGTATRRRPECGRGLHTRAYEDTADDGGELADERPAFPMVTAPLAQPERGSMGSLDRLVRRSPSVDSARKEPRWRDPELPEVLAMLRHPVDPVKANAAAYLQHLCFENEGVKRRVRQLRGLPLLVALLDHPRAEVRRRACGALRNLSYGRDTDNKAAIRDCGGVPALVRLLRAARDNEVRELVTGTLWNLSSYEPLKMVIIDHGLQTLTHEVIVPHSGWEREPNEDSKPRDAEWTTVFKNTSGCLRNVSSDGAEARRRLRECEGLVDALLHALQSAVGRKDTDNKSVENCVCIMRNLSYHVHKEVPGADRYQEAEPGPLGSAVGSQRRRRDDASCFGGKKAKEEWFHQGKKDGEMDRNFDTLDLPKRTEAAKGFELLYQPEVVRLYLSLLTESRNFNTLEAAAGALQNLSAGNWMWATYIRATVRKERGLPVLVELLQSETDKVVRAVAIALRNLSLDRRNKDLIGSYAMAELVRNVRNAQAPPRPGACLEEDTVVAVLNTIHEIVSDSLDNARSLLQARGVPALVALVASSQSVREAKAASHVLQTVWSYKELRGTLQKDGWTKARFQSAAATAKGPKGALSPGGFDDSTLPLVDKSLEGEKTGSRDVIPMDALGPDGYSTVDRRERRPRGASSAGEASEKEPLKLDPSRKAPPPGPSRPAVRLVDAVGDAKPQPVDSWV
UniProt Q96BM9: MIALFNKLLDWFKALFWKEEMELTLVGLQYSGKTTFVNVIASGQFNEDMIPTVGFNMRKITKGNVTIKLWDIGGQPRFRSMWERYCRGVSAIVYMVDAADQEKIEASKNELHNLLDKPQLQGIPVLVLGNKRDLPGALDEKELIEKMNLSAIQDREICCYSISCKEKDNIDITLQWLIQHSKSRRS

Legend:
Assay in all cases: log2 fold change, soluble protein after heating vs DMSO (PISA); higher = thermal stabilisation; K562 lysate, 10 uM; active = over 0.2 and 3.5 SD of the protein, either way, in both replicates (recomputed)
erlotinib = compound: C#Cc1cccc(Nc2ncnc3cc(OCCOC)c(OCCOC)cc23)c1 [erlotinib]
Outline: (§1)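 Thermal stability, expressed as log-two fold change relative to solvent controls, is given from duplicates. Crude K562 extract in PBS pH 7.4 with 1 mM MgCl2, at 1 mg/mL protein, was treated with 10 μM compound for 30 min and heated in aliquots for 3 min across 48°C-58°C. After pooling, adjustment to 0.5% NP-40 at 4°C and centrifugation at 21,000xg for 90 min, supernatant protein was measured by TMTpro 16plex LC-MS/MS with channel sums equalised.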

[1] = compound: C/C(=N\NC(=O)C1=CC(=CC=C1)S(=O)(=O)N2CCOCC2)/C3=C(C=CC(=C3)Cl)O
Outline: as §1

[2] = compound: C1=CC(=CC=C1C2=NC3=C(N2)C=C(C=C3)C(=O)N)OC4=CC=C(C=C4)Cl
Outline: as §1

[3] = compound: C1=CC2=C(C=CC(=C2)/C=C\3/C(=O)NC(=NCC4=CC=CS4)S3)N=C1
Outline: as §1

[4] = compound: C1=CC2=NC=CN=C2C=C1/C=C/3\C(=O)NC(=O)S3
Outline: as §1

[5] = compound: C1=CC=C(C=C1)C2=NC(=C(N2)C3=CC=NC=C3)C4=CC(=C(C=C4)Cl)O
Outline: as §1

[6] = compound: C1=CC=C2C(=C1)C3=NNC4=CC=CC(=C43)C2=O
Outline: as §1

[7] = compound: C1CCN(C1)C(=O)NC2=CC=CC(=C2)NC3=NC=C(C(=N3)NCCC4=CN=CN4)Br
Outline: as §1

[8] = compound: C1CN(CCC1(CC2=CC=C(C=C2)Cl)N)C3=NC=NC4=C3C=CN4
Outline: as §1

IRAK-1-4 Inhibitor I = compound: C1COCCN1CCN2C3=CC=CC=C3N=C2NC(=O)C4=CC(=CC=C4)[N+](=O)[O-] [IRAK-1-4 Inhibitor I]
Outline: as §1

ibrutinib = compound: C=CC(=O)N1CCC[C@@H](n2nc(-c3ccc(Oc4ccccc4)cc3)c3c(N)ncnc32)C1 [ibrutinib]
Outline: as §1

[9] = compound: CC(=O)c1cnc2ccc(-c3cc(Cl)c(O)c(Cl)c3)nc2c1N[C@H]1CC[C@H](CN(C)C)CC1
Outline: as §1

ralimetinib = compound: CC(C)(C)Cn1c(N)nc2ccc(-c3[nH]c(C(C)(C)C)nc3-c3ccc(F)cc3)nc21 [ralimetinib]
Outline: as §1

[10] = compound: CC(C)(O)CC(=O)NCCn1ccc2ncnc(Nc3ccc(Oc4cccc(C(F)(F)F)c4)c(Cl)c3)c21
Outline: as §1

[11] = compound: CC(C)C1=C2N=C(C=C(N2N=C1)NCC3=CC=CC=C3)NCCCCCCN
Outline: as §1

[12] = compound: CC1=C(C(CC(=O)N1)C2=CC=C(C=C2)C(F)(F)F)C(=O)NC3=C(C=C4C(=C3)C=NN4)F
Outline: as §1

[13] = compound: CC1=C(C2=C(C=C1)C(=O)C3=CC=CC=C3N2CCCN)C
Outline: as §1

[14] = compound: CC1=C(C=C(C=C1)NC(=O)C2=CC(=CC=C2)C(C)(C)C#N)NC3=CC4=C(C=C3)N=CN(C4=O)C
Outline: as §1

[15] = compound: CC1=C(C=C(C=C1)NC(=O)C2=CC(=CC=C2)N(C)C)NC(=O)C3=CC=C(C=C3)O
Outline: as §1

[16] = compound: CC1=CC=C(C=C1)SC2=C3C=C(SC3=CN=C2)C(=O)N
Outline: as §1

Measured: log2 fold change

ARRB2 isoform 3 (UniProt P32121)
inactive: erlotinib -0.015 | [1] -0.04 | [2] -0.027 | [3] -0.002 | [4] 0.014 | [5] -0.005 | [6] -0.001 | [7] 0.029 | [8] 0.008 | IRAK-1-4 Inhibitor I -0.006 | ibrutinib -0.027 | [9] -0.007 | ralimetinib 0 | [10] -0.006 | [11] -0.004 | [12] -0.048 | [13] -0.04 | [14] 0.024 | [15] 0.006 | [16] -0.013

API5 isoform 2 (UniProt Q9BZZ5)
inactive: erlotinib -0.118 | [1] 0.033 | [2] 0.021 | [3] -0.097 | [4] 0.005 | [5] 0.019 | [6] 0.074 | [7] -0.065 | [8] 0.034 | IRAK-1-4 Inhibitor I 0.001 | ibrutinib 0.012 | [9] -0.011 | ralimetinib 0.053 | [10] 0.022 | [11] 0.104 | [12] 0 | [13] -0.04 | [14] -0.091 | [15] -0.05 | [16] 0.087

ARSB (UniProt P15848)
inactive: erlotinib 0.038 | [1] 0.008 | [2] 0.054 | [3] 0.025 | [4] 0.026 | [5] 0.013 | [6] 0.023 | [7] 0.034 | [8] 0.006 | IRAK-1-4 Inhibitor I -0.021 | ibrutinib -0.087 | [9] -0.022 | ralimetinib 0.001 | [10] -0.042 | [11] -0.136 | [12] -0.051 | [13] 0.049 | [14] 0.022 | [15] -0.014 | [16] -0.009

ARL6IP4 (UniProt Q66PJ3)
inactive: erlotinib -0.003 | [1] -0.114 | [2] 0.06 | [3] -0.122 | [4] 0.008 | [5] 0.004 | [6] -0.008 | [7] 0.047 | [8] 0.055 | IRAK-1-4 Inhibitor I 0.021 | ibrutinib 0.028 | [9] -0.024 | ralimetinib 0.001 | [10] -0.027 | [11] -0.028 | [12] -0.043 | [13] -0.015 | [14] -0.029 | [15] 0.007 | [16] -0.008

ARPP19 (UniProt H3BMD8)
inactive: erlotinib -0.022 | [1] -0.044 | [2] 0.036 | [3] 0.03 | [4] -0.001 | [5] 0.002 | [6] 0.003 | [7] -0.002 | [8] 0.049 | IRAK-1-4 Inhibitor I 0.018 | ibrutinib 0.016 | [9] -0.011 | ralimetinib 0.044 | [10] -0.054 | [11] -0.018 | [12] -0.005 | [13] 0.004 | [14] 0.022 | [15] -0.006 | [16] -0.06

ARHGAP22 isoform 2 (UniProt Q7Z5H3)
inactive: erlotinib 0.068 | [2] 0.14 | [5] 0.011 | [7] -0.05 | [8] 0.014 | IRAK-1-4 Inhibitor I 0.025 | [9] -0.071 | ralimetinib 0.049 | [10] -0.15 | [11] 0.029 | [13] -0.047 | [14] 0.097 | [15] 0.024 | [16] 0.008

4 successive entries already listed, quoted:
ARSB (UniProt P15848)
inactive: erlotinib 0.038 | [1] 0.008 | [2] 0.054 | [3] 0.025 | [4] 0.026 | [5] 0.013 | [6] 0.023 | [7] 0.034 | [8] 0.006 | IRAK-1-4 Inhibitor I -0.021 | ibrutinib -0.087 | [9] -0.022 | ralimetinib 0.001 | [10] -0.042 | [11] -0.136 | [12] -0.051 | [13] 0.049 | [14] 0.022 | [15] -0.014 | [16] -0.009

ARL6IP4 (UniProt Q66PJ3)
inactive: erlotinib -0.003 | [1] -0.114 | [2] 0.06 | [3] -0.122 | [4] 0.008 | [5] 0.004 | [6] -0.008 | [7] 0.047 | [8] 0.055 | IRAK-1-4 Inhibitor I 0.021 | ibrutinib 0.028 | [9] -0.024 | ralimetinib 0.001 | [10] -0.027 | [11] -0.028 | [12] -0.043 | [13] -0.015 | [14] -0.029 | [15] 0.007 | [16] -0.008

ARPP19 (UniProt H3BMD8)
inactive: erlotinib -0.022 | [1] -0.044 | [2] 0.036 | [3] 0.03 | [4] -0.001 | [5] 0.002 | [6] 0.003 | [7] -0.002 | [8] 0.049 | IRAK-1-4 Inhibitor I 0.018 | ibrutinib 0.016 | [9] -0.011 | ralimetinib 0.044 | [10] -0.054 | [11] -0.018 | [12] -0.005 | [13] 0.004 | [14] 0.022 | [15] -0.006 | [16] -0.06

ARHGAP22 isoform 2 (UniProt Q7Z5H3)
inactive: erlotinib 0.068 | [2] 0.14 | [5] 0.011 | [7] -0.05 | [8] 0.014 | IRAK-1-4 Inhibitor I 0.025 | [9] -0.071 | ralimetinib 0.049 | [10] -0.15 | [11] 0.029 | [13] -0.047 | [14] 0.097 | [15] 0.024 | [16] 0.008

(list continues)

APOBEC3F (UniProt Q8IUX4)
inactive: erlotinib 0.07 | [1] -0.054 | [2] -0.242 | [3] -0.01 | [4] -0.14 | [6] -0.058 | [7] 0.008 | [8] 0.008 | ibrutinib -0.013 | [9] -0.332 | [11] -0.031 | [12] 0.061 | [14] 0.032 | [16] 0.083

ARSK (UniProt Q6UWY0)
inactive: erlotinib -0.048 | [1] -0.096 | [2] -0.053 | [3] 0.018 | [5] 0.122 | [6] 0.024 | [7] 0.09 | [8] -0.044 | IRAK-1-4 Inhibitor I 0.02 | [9] -0.093 | ralimetinib 0 | [10] 0.001 | [11] 0.165 | [13] -0.004 | [15] -0.08 | [16] -0.199

AP5B1 (UniProt Q2VPB7)
inactive: erlotinib 0.006 | [2] -0.05 | [4] -0.069 | [5] 0.014 | [7] 0.073 | [8] 0.046 | IRAK-1-4 Inhibitor I 0.03 | ibrutinib 0.112 | [9] -0.037 | ralimetinib -0.04 | [10] -0.072 | [11] 0.011 | [12] 0.021 | [13] -0.067 | [14] -0.08 | [15] 0.036 | [16] -0.006

APH1A (UniProt Q96BI3)
inactive: erlotinib 0.036 | [2] -0.011 | [4] -0.035 | [7] 0.054 | [8] 0.03 | ibrutinib -0.084 | [9] 0.046 | [11] -0.103 | [12] 0.11 | [14] 0.073 | [16] -0.072

APC (UniProt P25054)
inactive: erlotinib 0.018 | [1] -0.166 | [2] -0.034 | [3] 0.111 | [4] -0.052 | [5] 0.012 | [6] 0.06 | [7] -0.026 | [8] -0.051 | IRAK-1-4 Inhibitor I 0.018 | ibrutinib 0 | ralimetinib 0.019 | [10] -0.03 | [11] 0.012 | [13] -0.015 | [14] 0.012 | [15] 0.072

ARHGAP28 (UniProt Q9P2N2)
inactive: erlotinib -0.001 | [2] 0.135 | [4] 0.021 | ibrutinib -0.008 | [9] -0.062 | [11] -0.031 | [13] -0.066 | [16] -0.066

ARCN1 (UniProt P48444)
inactive: erlotinib -0.014 | [1] 0.043 | [2] 0.003 | [3] -0.009 | [4] -0.005 | [5] 0.001 | [6] 0.003 | [7] -0.024 | [8] -0.013 | IRAK-1-4 Inhibitor I 0.004 | ibrutinib -0.013 | [9] -0.009 | ralimetinib -0.017 | [10] 0.005 | [11] -0.013 | [12] -0.042 | [13] -0.001 | [14] -0.003 | [15] -0.012 | [16] 0.016

ARVCF (UniProt O00192)
inactive: erlotinib 0.07 | [1] -0.025 | [2] 0.111 | [3] 0.056 | [5] 0.052 | [6] -0.047 | [7] -0.014 | [8] -0.093 | IRAK-1-4 Inhibitor I 0.09 | [9] -0.239 | ralimetinib -0.006 | [10] -0.079 | [11] -0.045 | [12] -0.072 | [13] 0.02 | [14] 0.023 | [15] 0.023 | [16] -0.266

ARL14EP (UniProt Q8N8R7)
inactive: erlotinib -0.014 | [1] -0.202 | [2] -0.002 | [3] 0.218 | [4] 0.084 | [5] 0.041 | [6] -0.053 | IRAK-1-4 Inhibitor I -0.025 | ibrutinib 0.016 | ralimetinib 0.056 | [10] -0.017 | [11] -0.047 | [12] 0.018 | [13] -0.144 | [14] -0.03 | [15] 0.059

APPBP2 (UniProt Q92624)
inactive: erlotinib 0.091 | [2] -0.036 | [4] 0.139 | [5] -0.021 | IRAK-1-4 Inhibitor I -0.023 | ibrutinib 0.154 | ralimetinib -0.045 | [10] -0.052 | [11] 0.049 | [14] 0.054 | [15] -0.175

APPL2 isoform 3 (UniProt Q8NEU8)
inactive: erlotinib 0.034 | [1] 0.08 | [2] -0.055 | [3] -0.076 | [4] -0.018 | [5] 0.105 | [6] -0.018 | [7] 0.002 | [8] -0.049 | IRAK-1-4 Inhibitor I 0.145 | ibrutinib -0.016 | [9] 0.002 | ralimetinib -0.08 | [10] 0.029 | [11] 0.009 | [13] 0.012 | [14] -0.028 | [15] -0.027 | [16] 0.102

ARMC8 (UniProt Q8IUR7)
inactive: erlotinib -0.03 | [1] 0 | [2] 0.008 | [3] 0.023 | [4] -0.002 | [5] 0.022 | [6] 0.015 | [7] -0.046 | [8] -0.023 | IRAK-1-4 Inhibitor I -0.032 | ibrutinib -0.021 | [9] -0.028 | ralimetinib 0.006 | [10] -0.022 | [11] -0.031 | [12] 0.017 | [13] -0.024 | [14] -0.002 | [15] 0.012 | [16] -0.003

ARL8A (UniProt Q96BM9)
inactive: erlotinib -0.223 | [1] -0.039 | [2] 0.176 | [3] 0.157 | [4] 0.036 | [5] 0 | [6] -0.041 | [7] 0.026 | [8] 0.028 | IRAK-1-4 Inhibitor I 0.091 | ibrutinib -0.141 | [9] 0.119 | ralimetinib -0.101 | [10] -0.102 | [11] 0.11 | [12] 0.135 | [13] -0.049 | [14] -0.143 | [15] -0.022 | [16] 0
